Test [1] has as its target T1, Endogenous PPM1A (protein phosphatase Mg2+/Mn2+-dependent 1A) in 3T3-L1 adipocytes (mouse (endogenous in 3T3-L1)) (UniProt P49443).
T1 sequence: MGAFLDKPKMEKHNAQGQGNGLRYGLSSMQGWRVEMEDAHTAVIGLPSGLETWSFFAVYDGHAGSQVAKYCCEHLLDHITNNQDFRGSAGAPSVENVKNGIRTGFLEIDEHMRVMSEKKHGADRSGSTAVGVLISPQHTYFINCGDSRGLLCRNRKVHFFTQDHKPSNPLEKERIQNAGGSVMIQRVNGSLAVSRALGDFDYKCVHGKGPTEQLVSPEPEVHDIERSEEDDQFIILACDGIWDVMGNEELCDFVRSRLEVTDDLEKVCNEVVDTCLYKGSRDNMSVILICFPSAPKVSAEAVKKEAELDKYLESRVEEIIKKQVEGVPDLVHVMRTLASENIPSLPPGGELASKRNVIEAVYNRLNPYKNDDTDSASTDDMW
Description: co-IP; endogenous PPM1A and endogenous PPARγ each immunoprecipitated from 3T3-L1 adipocytes, the other detected by Western blotting. (In general: A western blot detects proteins with antibodies after separation by electrophoresis.)

In test [2] the target is Endogenous PPARγ (peroxisome proliferator-activated receptor gamma) in 3T3-L1 adipocytes (mouse (endogenous in 3T3-L1)) (UniProt P37238). The test is described as above.
Test [3] has as its target FLAG epitope-tagged PPARγ S273A expressed in HEK-293 cells (UniProt P37238). Description: co-IP; HEK-293 cells co-transfected with PPARγ and PPM1A, with or without PMA (500 nM, 30 min); total cell lysates incubated with FLAG M2 agarose at 4 °C; Western blotting.
Test [4] addresses FLAG epitope-tagged wild-type PPARγ expressed in HEK-293 cells (UniProt P37238). The description is as above.

Positions count from the first letter of the chain named. Results are given in words; binding and its absence hold for the method and conditions named. In cells and extracts the contact can be indirect. Some binding calls cover weakened binding; strength is not graded here.

As for “Endogenous PPARγ (peroxisome proliferator-activated receptor gamma) in 3T3-L1 adipocytes (from UniProt P37238 1-505)”, the binding entry in test [1] is listed as “binds”.

B1: Endogenous PPM1A (protein phosphatase Mg2+/Mn2+-dependent 1A) in 3T3-L1 adipocytes (enzyme, UniProt P49443 1-382)
chain: T1 sequence
Take B1: the binding entry in test [2] was “binds”.

B2: WT human PPM1A expressed in HEK-293 cells (enzyme, UniProt P35813 1-382)
chain: T1 sequence with T52S, R86K, S293N, A299P, S314C, V324G, A376T
As to B2, the binding result in test [3] and in test [4] was “binds” in each case.

The values are drawn from publication PMC7072254.
